Measured values published in patent US20140178892A1, “SCREENING METHODS BASED ON VESICLE MOBILITY” (priority 2011, published 2014).
“Also recorded” adds a separate entry of the source. For at least one compound, name, drawing or mass did not settle the structure.

Test system: secretory vesicles in transfected astrocytes expressing ANP.emd
Assay: Mobility of fluorescently labeled (ANP.emd) secretory vesicles in cultured astrocytes, particle tracking of time-lapse fluorescence images
Type: cell-based, rat
Details: dependence on extracellular concentration; regions near the plasmalemma and deeper in the cytoplasm
Description: Cultured astrocytes, e.g. isolated as previously described by Schwartz & Wilson (Glia. 1992; 5(1):75-80) or any other cell type isolated from animal tissues or clonal cell lines derived from human or animal sources are seeded onto coverslips and maintained in an adequate cell cultured medium.
Cell organelles are stained by commercially available dyes and/or by cell transfection. E.g. peptidergic secretory vesicles are labeled by cell transfection for the secretory peptide—pro-atrial natriuretic peptide tagged with emerald green fluorescent protein (ANP.emd; see Han et al., Proc Natl Acad Sci USA. 1999; 96:14577-14582; Krian et al., J. Neurosci. 2003; 23(5):1580-3.). […]
Cell loaded coverslips are then rinsed with extracellular solution (consisting of 10 mM HEPES/NaOH (pH 7.2), 10 mM D-glucose, 130 mM NaCl, 2 mM CaCl2, 2 mM MgCl2, and 5 mM KCl) and observed by fluorescence microscopy at 63× or 100× magnification using 488 nm Ar—Ion laser excitation (for ANP.emd, VGLUT1-GFP and quinacrine dihydrochloride) or 543 nm He—Ne laser exitation (for LysoTracker Red DND-99, Alexa Fluor^546 dextran), and band-pass filtered at 505-530 nm or long-pass filtered at 560 nm. Time-lapse fluorescence images are acquired at 0.5-2 Hz for 1-10 minutes to monitor vesicle mobility. […]

In the case of `CCCCCCCCc1ccc(CCC(N)(CO)CO)cc1` [FTY720, Fingolimod], the vesicle mobility is reported as “dose dependent variation; also recorded: dose-dependently attenuated”.
